Amino acid sequences for entries named in this document (tags omitted). Residues count along the entry.
UniProt P28799, residues 18-593: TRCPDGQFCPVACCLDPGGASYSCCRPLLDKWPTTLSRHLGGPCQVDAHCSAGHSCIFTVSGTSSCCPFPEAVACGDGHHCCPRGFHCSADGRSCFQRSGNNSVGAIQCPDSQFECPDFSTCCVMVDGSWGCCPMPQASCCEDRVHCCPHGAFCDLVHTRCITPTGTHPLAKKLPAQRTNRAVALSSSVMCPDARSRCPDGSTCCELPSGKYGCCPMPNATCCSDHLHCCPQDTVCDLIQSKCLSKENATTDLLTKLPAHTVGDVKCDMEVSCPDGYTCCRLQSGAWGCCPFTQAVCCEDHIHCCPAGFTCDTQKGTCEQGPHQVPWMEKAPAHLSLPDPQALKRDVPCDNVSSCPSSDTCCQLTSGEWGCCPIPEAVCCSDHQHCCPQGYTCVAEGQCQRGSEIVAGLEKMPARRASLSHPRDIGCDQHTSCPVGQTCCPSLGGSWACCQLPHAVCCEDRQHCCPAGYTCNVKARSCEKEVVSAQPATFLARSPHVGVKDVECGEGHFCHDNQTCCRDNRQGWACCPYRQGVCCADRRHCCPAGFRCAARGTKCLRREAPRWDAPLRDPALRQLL

In PMC4359319:

Target: T1, N-terminal kinase like protein (NTKL) (human (expressed in the human HCC cell line QGY-7703; species of the cDNA not stated)) (UniProt Q96KG9)
T1 sequence: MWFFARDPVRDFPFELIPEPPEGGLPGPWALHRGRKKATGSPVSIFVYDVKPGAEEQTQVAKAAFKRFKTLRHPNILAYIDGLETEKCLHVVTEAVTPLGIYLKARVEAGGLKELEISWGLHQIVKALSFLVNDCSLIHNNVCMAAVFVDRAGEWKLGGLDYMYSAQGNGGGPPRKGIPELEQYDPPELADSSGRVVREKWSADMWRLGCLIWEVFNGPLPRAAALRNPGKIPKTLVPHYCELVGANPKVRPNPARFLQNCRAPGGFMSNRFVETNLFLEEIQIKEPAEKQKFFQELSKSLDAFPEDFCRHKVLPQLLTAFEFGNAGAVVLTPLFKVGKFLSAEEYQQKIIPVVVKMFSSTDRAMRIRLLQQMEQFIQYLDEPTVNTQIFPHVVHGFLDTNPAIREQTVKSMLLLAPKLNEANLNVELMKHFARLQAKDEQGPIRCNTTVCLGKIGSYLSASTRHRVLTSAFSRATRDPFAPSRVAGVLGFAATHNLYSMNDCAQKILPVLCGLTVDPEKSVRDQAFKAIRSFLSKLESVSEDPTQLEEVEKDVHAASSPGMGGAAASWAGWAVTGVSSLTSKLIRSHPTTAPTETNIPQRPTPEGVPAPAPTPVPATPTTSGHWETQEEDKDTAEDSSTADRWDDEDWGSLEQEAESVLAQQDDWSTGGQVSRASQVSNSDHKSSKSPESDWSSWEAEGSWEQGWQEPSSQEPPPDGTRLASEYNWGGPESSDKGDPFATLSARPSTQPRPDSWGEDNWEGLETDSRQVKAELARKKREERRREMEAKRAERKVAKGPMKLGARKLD
Test: affinity purification with mass spectrometry; NTKL-7703 cell lysate precipitated with NTKL antibody (rabbit IgG as control) and protein G agarose, 4°C; SDS gel, silver staining; bands seen only in the experimental group cut out and analysed by mass spectrometry

Substance: granulin (from UniProt P28799 18-593)
- binding: binds

No constants are given. Whether binding was seen depends on the method and setting. Binding seen in cells or lysates may run through a third protein. These calls come from enrichment with a bait or labelling near it, and not all partners need be listed.
